Source: doi:10.1371/journal.pone.0140310, primary screening data, rounded.

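The test systems are human melanoma cell lines, treated with a pair of drugs for 72 h and then stained and imaged. Each value is the cleaved-PARP-positive fraction of nuclei relative to DMSO-treated wells, in %, so that 100 equals the control and higher values mean more apoptosis. Every drug was used at one fixed concentration, the higher of two screened. No replicate spread is given; individual values may be noisy. The marker varies much from line to line, for technical or biological reasons.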
This is part of the screen, not chosen by result.
An entry leaves out what has no value listed here.

Drugs:
fludarabine (1000 nM): Nc1nc(F)nc2c1ncn2[C@@H]1O[C@H](CO)[C@@H](O)[C@@H]1O
CP-690550 (5000 nM): C[C@@H]1CCN(C(=O)CC#N)C[C@@H]1N(C)c1ncnc2[nH]ccc12
U73122 (2000 nM): COc1ccc2c(c1)CCC1C2CCC2(C)C(NCCCCCCN3C(=O)C=CC3=O)CCC12 (stereo not shown)
A-769662 (10000 nM): N#Cc1c(O)c2c(-c3ccc(-c4ccccc4O)cc3)csc2[nH]c1=O

Results for fludarabine and U73122 are MEL-HO: 43.8; WM1716: 156; SK-MEL-2: 1240; WM3526: 3820; UACC-62: 105; WM451Lu: 42.5; UACC-257: 2450; A2058: 103; MeWo: 191; WM115: 75.8; MZ2-MEL: 55.0; C32: 172; 501mel: 1610; RPMI-7951: 524; SK-MEL-5: 1710; IST-MEL1: 126; COLO 829: 141; RVH-421: 76.7; SK-MEL-30: 646; WM3619: 92.9; LOX IMVI: 74.7; COLO 792: 196; A101D: 142; COLO 800: 88.8; SK-MEL-28: 1800; IPC-298: 97.8; G-361: 230; A375: 613; LB2518-MEL: 61.7. A-769662 and U73122 gave MEL-HO: 153; WM1745: 193; WM1716: 113; SK-MEL-2: 111; WM3526: 90.2; UACC-62: 134; WM451Lu: 87.9; UACC-257: 27.3; A2058: 145; MeWo: 44.2; WM115: 112; MZ2-MEL: 48.1; C32: 112; 501mel: 152; RPMI-7951: 288; SK-MEL-5: 106; IST-MEL1: 109; COLO 829: 111; RVH-421: 88.9; SK-MEL-30: 92.8; WM3619: 206; LOX IMVI: 115; COLO 792: 150; A101D: 72.4; COLO 800: 145; SK-MEL-28: 122; IPC-298: 96.2; G-361: 175; A375: 47.1; LB2518-MEL: 139. CP-690550 and U73122 gave MEL-HO: 45.9; WM1745: 1140; WM1716: 168; SK-MEL-2: 106; WM3526: 97.4; UACC-62: 266; WM451Lu: 80.1; UACC-257: 53.9; A2058: 38.4; MeWo: 82.6; WM115: 57.1; MZ2-MEL: 55.4; C32: 92.9; 501mel: 275; RPMI-7951: 73.9; SK-MEL-5: 116; IST-MEL1: 122; COLO 829: 116; RVH-421: 43.7; SK-MEL-30: 108; WM3619: 134; LOX IMVI: 382; COLO 792: 117; A101D: 151; COLO 800: 57.9; SK-MEL-28: 120; IPC-298: 84.6; G-361: 23.3; A375: 39.6; LB2518-MEL: 64.0. Results for A-769662 and CP-690550 are MEL-HO: 78.3; WM1745: 92.9; WM1716: 117; SK-MEL-2: 69.8; WM3526: 101; UACC-62: 43.6; WM451Lu: 104; UACC-257: 26.5; A2058: 102; MeWo: 48.1; WM115: 98.4; MZ2-MEL: 92.2; C32: 203; 501mel: 104; RPMI-7951: 44.1; SK-MEL-5: 165; IST-MEL1: 94.6; COLO 829: 159; RVH-421: 57.7; SK-MEL-30: 83.1; WM3619: 124; LOX IMVI: 18.0; COLO 792: 104; A101D: 91.4; COLO 800: 106; SK-MEL-28: 111; IPC-298: 113; G-361: 67.8; A375: 58.4; LB2518-MEL: 60.8. CP-690550 and fludarabine gave MEL-HO: 88.2; WM1745: 208; WM1716: 122; SK-MEL-2: 4760; WM3526: 4820; UACC-62: 95.1; WM451Lu: 50.3; UACC-257: 8580; A2058: 99.4; MeWo: 105; WM115: 167; MZ2-MEL: 108; C32: 158; RPMI-7951: 314; SK-MEL-5: 2260; IST-MEL1: 162; COLO 829: 29.9; RVH-421: 75.2; SK-MEL-30: 1800; WM3619: 119; LOX IMVI: 42.6; COLO 792: 190; A101D: 120; COLO 800: 76.4; SK-MEL-28: 1750; IPC-298: 141; G-361: 36.3; LB2518-MEL: 340.

For A-769662 and fludarabine the values were MEL-HO: 216; WM1716: 69.5; SK-MEL-2: 1060; WM3526: 1980; UACC-62: 148; WM451Lu: 292; UACC-257: 2360; A2058: 148; MeWo: 67.4; WM115: 56.6; MZ2-MEL: 63.2; C32: 107; 501mel: 1150; RPMI-7951: 300; SK-MEL-5: 2240; IST-MEL1: 222; COLO 829: 211; RVH-421: 134; SK-MEL-30: 488; WM3619: 108; LOX IMVI: 30.6; COLO 792: 77.4; A101D: 233; COLO 800: 84.3; SK-MEL-28: 2020; IPC-298: 168; G-361: 128; A375: 314; LB2518-MEL: 264.